From patent US6458847B1, “Method for screening for drugs useful in inhibition of polymerization of aβ and tau peptides” (University of Alabama at Birmingham Research Foundation, priority 1995, dated 2002)
Some of these results come from one statement about several compounds together. Some compounds share one range, which may span the group rather than tell each member.

Amino acid sequences for entries named in this document (tags omitted). Chains listed by the source or under a name are the forms on record and can include a tag or linker.
UniProt P19332, with tags, fused parts or gaps isoform P19332-6 DEL209-239: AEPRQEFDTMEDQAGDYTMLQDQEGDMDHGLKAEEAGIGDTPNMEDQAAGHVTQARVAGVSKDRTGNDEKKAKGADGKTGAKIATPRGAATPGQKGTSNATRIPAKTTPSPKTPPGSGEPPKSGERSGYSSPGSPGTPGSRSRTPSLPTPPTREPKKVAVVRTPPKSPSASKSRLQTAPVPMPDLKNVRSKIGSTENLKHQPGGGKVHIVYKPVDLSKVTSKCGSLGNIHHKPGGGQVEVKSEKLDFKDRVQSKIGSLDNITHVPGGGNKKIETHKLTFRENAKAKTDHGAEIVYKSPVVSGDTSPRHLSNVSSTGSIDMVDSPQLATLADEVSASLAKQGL

What follows are molecules tested against T1, juvenile rat MTτ (Rattus norvegicus, UniProt P19332, DEL587-617) (assay: Fatty acid dependence of tau assembly, polymer length per field by electron microscopy). Settings: 50 μM fatty acid, 72 hours.
T1 construct: killed by decapitation at postnatal day 11 (juveniles); from tissue; host or cells: brain microtubules of P11 Sprague-Dawley rats
Format: biochemical
Procedure: All free fatty acids were purchased in the cis conformation and at maximum available purity from Sigma Chemical Company free fatty acids were diluted into tau and amyloid samples from a 200× ethanolic stock, such that the final ethanol concentration in all samples and controls was 0.5%.
Assembly was performed at 37° C. in siliconized microfuge tubes.
For staining of amyloid filaments, 4% uranyl acetate was used and the H2O rinse was omitted. […] Because short filaments were sometimes difficult to distinguish from background debri in digitized images, high concentrations of DTT were routinely used in order to maximize the production of longer filaments.

Fold increase in polymer formation, 20-30 fold:
CCCCCC=CCC=CCC=CCC=CCCCC(=O)O [5,8,11,14-eicosatetraenoic acid (20:4), 5,8,11,14-eicosatetraenoic acid]
CCCCC/C=C\C/C=C\CCCCCCCC(=O)O [9,12-linoleic acid (18:2), 9,12-linoleic acid]
CCCCCC/C=C\CCCCCCCC(=O)O [9-palmitoleic acid (16:1), 9-palmitoleic acid]
